Among the data in PMC5470003 are binding values, retold here.

By UniProt entry, the sequences of proteins in these tests, tags left out.
UniProt P19091: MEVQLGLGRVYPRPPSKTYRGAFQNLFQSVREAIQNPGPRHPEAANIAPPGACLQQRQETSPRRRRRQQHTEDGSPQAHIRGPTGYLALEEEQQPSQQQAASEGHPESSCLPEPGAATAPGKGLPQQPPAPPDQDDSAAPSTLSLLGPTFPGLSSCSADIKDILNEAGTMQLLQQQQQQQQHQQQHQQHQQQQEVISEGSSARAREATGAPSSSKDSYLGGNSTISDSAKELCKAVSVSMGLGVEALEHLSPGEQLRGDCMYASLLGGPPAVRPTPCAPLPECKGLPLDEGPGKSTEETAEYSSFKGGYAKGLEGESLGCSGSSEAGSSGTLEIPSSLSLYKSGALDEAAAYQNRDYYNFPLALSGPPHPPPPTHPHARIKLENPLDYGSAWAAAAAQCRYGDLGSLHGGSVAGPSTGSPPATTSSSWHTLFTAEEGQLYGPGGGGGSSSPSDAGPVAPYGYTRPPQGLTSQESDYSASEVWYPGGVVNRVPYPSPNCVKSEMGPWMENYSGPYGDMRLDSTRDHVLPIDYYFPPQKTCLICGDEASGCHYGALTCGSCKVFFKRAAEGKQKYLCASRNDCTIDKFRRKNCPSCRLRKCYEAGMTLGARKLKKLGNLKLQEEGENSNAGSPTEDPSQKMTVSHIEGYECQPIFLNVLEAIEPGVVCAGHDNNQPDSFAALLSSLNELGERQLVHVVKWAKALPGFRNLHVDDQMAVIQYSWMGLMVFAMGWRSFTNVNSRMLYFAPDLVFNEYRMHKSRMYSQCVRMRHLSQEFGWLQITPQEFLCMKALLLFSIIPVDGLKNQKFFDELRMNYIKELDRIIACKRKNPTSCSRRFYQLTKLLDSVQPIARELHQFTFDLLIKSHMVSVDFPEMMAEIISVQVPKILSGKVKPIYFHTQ

The target in assay [1] is T1, caveolin-1 (mouse (endogenous in TM4)) (UniProt P49817).
T1 sequence: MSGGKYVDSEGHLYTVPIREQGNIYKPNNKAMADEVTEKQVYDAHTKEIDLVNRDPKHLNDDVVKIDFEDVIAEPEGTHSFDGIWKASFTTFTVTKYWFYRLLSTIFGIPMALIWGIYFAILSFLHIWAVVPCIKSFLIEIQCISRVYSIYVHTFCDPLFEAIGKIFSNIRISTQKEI
Briefly: co-IP; membrane fraction proteins of TM4 cells treated with vehicle (basal) or 10 nM testosterone for 30 min; immunoprecipitated with anti-caveolin-1 or anti-AR antibody, protein G Dynabeads, Western blot. In general terms: In western blotting, separated proteins are transferred to a membrane and probed.

Assay [2] addresses androgen receptor (mouse (endogenous in TM4)) (UniProt P19091). The assay is described as above.

Results are given in words; binding and its absence hold for the method and conditions named. Binding seen in cells or lysates may run through a third protein. Some entries that bind do so weakly or less than the wild type.

With “androgen receptor (from UniProt P19091 1-899)”, the binding entry in assay [1] is listed as “binds”.

B1: caveolin-1 (protein, UniProt P49817-1 1-178)
chain: T1 sequence
As for B1, in assay [2], the binding entry is “binds”.
